Assay results published in publication PMC10123104 (Nucleic Acids Research, 2023).

Assay: general procedure: Fmoc solid-phase peptide synthesis; preloaded Wang resins (Fmoc-Arg(Pbf)-Wang, Fmoc-Asp(tBu)-Wang, Fmoc-Glu(tBu)-Wang, Fmoc-Gln(Trt)-Wang); Rink amide-AM re; DIC/Oxyma
Settings: whole synthesis, TFA salt

H‐LEEIAEED DED ADDDADED D‐OH
isolated yield: 18% | final HPLC purity (analytical RP-HPLC): >99%
